Source: the supplement of paper PMC9015667
Structures can show the parent of a compound that is named as a salt. This is one part of the list. Many values rest on one well or one pass, so single values are uncertain.

Tests used:
Assay in all cases: reduction in cell viability relative to untreated/vehicle; higher = more growth inhibition
Details in all cases: 200 nM; 72 h
M229P = test system: M229P (parental melanoma line)
M229R = test system: M229R (matched melanoma line resistant to BRAF inhibitors)
M238P = test system: M238P (parental melanoma line)
M238R = test system: M238R (matched melanoma line resistant to BRAF inhibitors)
M249P = test system: M249P (parental melanoma line)
M249R = test system: M249R (matched melanoma line resistant to BRAF inhibitors)
UACC62P = test system: UACC62P (parental melanoma line)
UACC62R = test system: UACC62R (matched melanoma line resistant to BRAF inhibitors)

SMILES | reduction in cell viability (M229P) [%] | reduction in cell viability (M229R) [%] | reduction in cell viability (M238P) [%] | reduction in cell viability (M238R) [%] | reduction in cell viability (M249P) [%] | reduction in cell viability (M249R) [%] | reduction in cell viability (UACC62P) [%] | reduction in cell viability (UACC62R) [%]
COc1ccc(C2CC(c3ccccc3)=NN2c2ccc(S(N)(=O)=O)cc2)cc1 (centres undefined) | < 0 | < 0 | < 0 | < 0 | < 0 | < 0 | < 0 | < 0
COc1ccc(-c2cc3c(C)nc(N)nc3n([C@H]3CC[C@H](OCCO)CC3)c2=O)cn1 | 17.2 | 37.5 | 38.8 | 40.5 | 18.7 | 38.3 | 15.4 | 25.1
C[C@H]1[C@H](C)CC[C@]2(C(=O)O)CC[C@]3(C)C(=CC[C@@H]4[C@@]5(C)C[C@@H](O)[C@H](O)[C@@](C)(CO)[C@@H]5CC[C@]43C)[C@H]12 [Asiatic acid] | < 0 | < 0 | < 0 | < 0 | < 0 | < 0 | < 0 | < 0
Cc1c(C(=O)Nc2ccc(N3C[C@@H](C)O[C@@H](C)C3)nc2)cccc1-c1ccc(OC(F)(F)F)cc1 [LDE225 (NVP-LDE225,Erismodegib)] | < 0 | < 0 | < 0 | < 0 | < 0 | < 0 | < 0 | < 0
Cn1nnc2c(C(N)=O)ncn2c1=O [Temozolomide] | < 0 | < 0 | < 0 | < 0 | < 0 | < 0 | < 0 | < 0
O=C(Cc1ccc(-c2ccc(OCCN3CCOCC3)cc2)cn1)NCc1ccccc1 | 34.5 | 54.9 | 63.8 | 60.6 | 51.6 | 45.5 | 47.5 | 84.3
COc1ccc2[nH]cc(CCNC(C)=O)c2c1 [Melatonin] | < 0 | < 0 | < 0 | < 0 | < 0 | < 0 | < 0 | < 0
COc1c(C)cnc(Cn2cnc3c(Cl)nc(N)nc32)c1C | 50.5 | 63.8 | 34.5 | 45.4 | 28.8 | 20.7 | 61.9 | 61.8
O=c1cc(-c2ccccc2)oc2cc(O)cc(O)c12 [5,7-Dihydroxyflavone] | < 0 | < 0 | < 0 | < 0 | < 0 | < 0 | 8.6 | < 0
CON(C)C(=O)N1N=C(c2cc(F)ccc2F)S[C@@]1(CCCN)c1ccccc1 | 15.5 | 28.5 | 84.5 | 69.4 | 38.3 | 24.9 | 40.5 | 77
Nc1ncnc2nc(-c3ccc(N4CCOCC4)nc3)cc(-c3cccc(Br)c3)c12 | < 0 | < 0 | < 0 | < 0 | < 0 | < 0 | < 0 | < 0
Cc1cccc2c1CC[C@H](CN1CCC(c3c(Cl)cccc3Cl)CC1)C[C@@H]2O | < 0 | < 0 | < 0 | < 0 | < 0 | < 0 | < 0 | < 0
O=C(c1ccc(OCCN2CCCCC2)cc1)c1c(-c2ccc(O)cc2)sc2cc(O)ccc12 [Raloxifene hydrochloride] | < 0 | < 0 | < 0 | < 0 | < 0 | < 0 | < 0 | < 0
NCCc1ccc(O)c(O)c1 [Dopamine HCl] | < 0 | < 0 | < 0 | < 0 | < 0 | < 0 | 7.05 | < 0
OCc1ccc(-c2nn(Cc3ccccc3)c3ccccc23)o1 [Lificiguat] | < 0 | < 0 | < 0 | < 0 | < 0 | < 0 | 19.9 | < 0
CC(=O)OCCN1C(=O)c2c(C)nc3ccc(S(=O)(=O)N4CCOCC4)cc3c2C1=O [Ivachtin] | < 0 | < 0 | < 0 | < 0 | < 0 | < 0 | < 0 | < 0
CC(CCc1ccc(O)cc1)NCCc1ccc(O)c(O)c1 (centres undefined) [Dobutamine] | < 0 | < 0 | < 0 | < 0 | < 0 | < 0 | 5.26 | < 0
Cc1c(CN2CCN(C(=O)[C@H](C)O)CC2)sc2c(N3CCOCC3)nc(-c3cnc(N)nc3)nc12 | 18 | 41.9 | 51.1 | 59.1 | 36 | 42.8 | 40.7 | 32.6
C=C1C(=O)O[C@@H]2/C=C(\C)CC/C=C(\C)CC[C@@H]12 [Costunolide] | < 0 | < 0 | < 0 | < 0 | < 0 | 5.3 | < 0 | < 0
C[C@]12CC[C@H](O)CC1=CC[C@@H]1[C@@H]2CC[C@]2(C)C(n3cnc4ccccc43)=CC[C@@H]12 [Galeterone] | < 0 | < 0 | < 0 | < 0 | < 0 | < 0 | < 0 | < 0
COc1cc2c(cc1OC)CN(CCc1ccc(NC(=O)c3cccc4c(=O)c5cccc(OC)c5[nH]c34)cc1)CC2 [Elacridar] | < 0 | < 0 | < 0 | < 0 | < 0 | < 0 | < 0 | < 0
O=C1NC(=O)[C@@H](c2cn3c4c(cccc24)CCC3)[C@@H]1c1c[nH]c2ccccc12 [Tivantinib] | 14.4 | 41.6 | 30.5 | < 0 | < 0 | 20 | < 0 | 64.6

Arranged by heavy-atom count (ascending): some entries from above.
SMILES | reduction in cell viability (M229P) [%] | reduction in cell viability (M229R) [%] | reduction in cell viability (M238P) [%] | reduction in cell viability (M238R) [%] | reduction in cell viability (M249P) [%] | reduction in cell viability (M249R) [%] | reduction in cell viability (UACC62P) [%] | reduction in cell viability (UACC62R) [%]
O=C1NC(=O)[C@@H](c2cn3c4c(cccc24)CCC3)[C@@H]1c1c[nH]c2ccccc12 [Tivantinib] | 14.4 | 41.6 | 30.5 | < 0 | < 0 | 20 | < 0 | 64.6
CC(=O)OCCN1C(=O)c2c(C)nc3ccc(S(=O)(=O)N4CCOCC4)cc3c2C1=O [Ivachtin] | < 0 | < 0 | < 0 | < 0 | < 0 | < 0 | < 0 | < 0
C[C@H]1[C@H](C)CC[C@]2(C(=O)O)CC[C@]3(C)C(=CC[C@@H]4[C@@]5(C)C[C@@H](O)[C@H](O)[C@@](C)(CO)[C@@H]5CC[C@]43C)[C@H]12 [Asiatic acid] | < 0 | < 0 | < 0 | < 0 | < 0 | < 0 | < 0 | < 0

(list continues)

SMILES | reduction in cell viability (M229P) [%] | reduction in cell viability (M229R) [%] | reduction in cell viability (M238P) [%] | reduction in cell viability (M238R) [%] | reduction in cell viability (M249P) [%] | reduction in cell viability (M249R) [%] | reduction in cell viability (UACC62P) [%] | reduction in cell viability (UACC62R) [%]
N#Cc1cc(NC(=O)Nc2nnc(-c3ccncc3)s2)ccc1-c1cn[nH]c1 | < 0 | < 0 | < 0 | < 0 | < 0 | < 0 | < 0 | < 0
CC(C)c1onc(-c2c(Cl)cccc2Cl)c1COc1ccc(/C=C/c2cccc(C(=O)O)c2)c(Cl)c1 | < 0 | < 0 | < 0 | < 0 | < 0 | < 0 | < 0 | < 0
CCC[C@@H](C=O)NC(=O)[C@H](CC(C)C)NC(=O)[C@H](CC(C)C)NC(=O)OCc1ccccc1 | 73.6 | 58 | 90.5 | 89.7 | 92.7 | 92.4 | 47.5 | 86
NC12CC3CC(CC(C3)C1)C2 [Amantadine hydrochloride] | < 0 | < 0 | < 0 | < 0 | < 0 | 10.5 | < 0 | < 0
Nc1nc2[nH]cnc2c(=S)[nH]1 [Tioguanine] | 29.6 | < 0 | < 0 | < 0 | < 0 | 24.7 | 33.4 | 40.8
CCCCCCCCOc1ccccc1C(=O)Nc1ccc(C(=O)OCC[N+](C)(CC)CC)cc1 [Octylonium bromide] | < 0 | < 0 | < 0 | < 0 | < 0 | < 0 | < 0 | < 0
O=c1c(-c2ccc(O)cc2)coc2cc(O)cc(O)c12 [Genistein] | < 0 | < 0 | < 0 | < 0 | < 0 | < 0 | < 0 | < 0
Cc1ccc(C(=O)c2cc(O)c(O)c([N+](=O)[O-])c2)cc1 [Tolcapone] | < 0 | < 0 | 5.84 | < 0 | < 0 | < 0 | < 0 | < 0
CCOC(=O)[C@@H](N)Cc1ccc(-c2cc(O[C@H](c3ccc(Cl)cc3-n3ccc(C)n3)C(F)(F)F)nc(N)n2)cc1 [Telotristat etiprate] | < 0 | < 0 | < 0 | < 0 | < 0 | < 0 | 1.44 | < 0
COc1ccc(/C=C\c2cc(OC)c(OC)c(OC)c2)cc1NC(=O)[C@@H](N)CO [Ombrabulin] | 31.4 | 53.1 | 62.4 | 53.4 | 54.3 | 45.5 | 51.3 | 77
C[C@]12C=CC(=O)C=C1CC[C@@H]1[C@@H]2C(=O)C[C@@]2(C)[C@H]1CC[C@]2(O)C(=O)CO [Prednisone???] | < 0 | < 0 | < 0 | < 0 | < 0 | < 0 | < 0 | < 0
CN(C)c1ccc(Nc2nc(N)n(C(=O)c3c(F)cccc3F)n2)cc1 | < 0 | < 0 | < 0 | < 0 | < 0 | < 0 | < 0 | < 0
CO[C@H]1C[C@@H]2CC[C@@H](C)[C@@](O)(O2)C(=O)C(=O)N2CCCC[C@H]2C(=O)O[C@H]([C@H](C)C[C@@H]2CC[C@@H](OC(=O)C(C)(CO)CO)[C@H](OC)C2)CC(=O)[C@H](C)/C=C(\C)[C@@H](O)[C@@H](OC)C(=O)[C@H](C)C[C@H](C)/C=C/C=C/C=C/1C [Temsirolimus] | 10 | 4.37 | 16.6 | 6.2 | 22.1 | 35 | 35 | 8.8
Nc1nc(Cl)nc2c1ncn2[C@@H]1O[C@H](CO)[C@@H](O)[C@@H]1F [Clofarabine] | 7.83 | 37 | 83.4 | 58.7 | 23.4 | 51.7 | 26.1 | 84.3
OCCn1cc(-c2ccc3c(c2)CC/C3=N\O)c(-c2ccncc2)n1 | 8.5 | < 0 | 17.5 | < 0 | 10.3 | < 0 | 51.3 | < 0
O=C(N[C@@H](c1ccccc1)[C@@H]1CCCCN1)c1cccc(C(F)(F)F)c1Cl | < 0 | < 0 | < 0 | < 0 | < 0 | < 0 | < 0 | < 0
C[C@H]1[C@H](OC(=O)CCC(=O)O)O[C@@H]2O[C@@]3(C)CC[C@H]4[C@H](C)CC[C@@H]1[C@@]24OO3 [Artesunate] | < 0 | < 0 | < 0 | < 0 | 5.09 | < 0 | 28.8 | < 0
Cc1[nH]c2ccccc2c1CCNCc1ccc(/C=C/C(=O)NO)cc1 [Panobinostat (LBH589)] | 94.4 | 78.3 | 89.9 | 86.2 | 88.9 | 95.4 | 88.8 | 96.3
Cc1cc2cc3c(C)cc(=O)oc3c(C)c2o1 [Trioxsalen] | < 0 | < 0 | < 0 | < 0 | < 0 | < 0 | < 0 | < 0
COc1ccc(-c2ccc3c(N4CCOCC4)nc(N4C[C@@H](C)O[C@@H](C)C4)nc3n2)cc1CO | 6.79 | 9.77 | 3.22 | 17.3 | 8.95 | 12.1 | 30.8 | 14.4
Cc1cn(-c2cc(NC(=O)c3ccc(C)c(Nc4nccc(-c5cccnc5)n4)c3)cc(C(F)(F)F)c2)cn1 [Nilotinib (AMN-107)] | < 0 | < 0 | < 0 | < 0 | < 0 | < 0 | < 0 | < 0
